Experimental data published in publication PMC11005723, “Development of Complementary Photo‐arginine/lysine to Promote Discovery of Arg/Lys hPTMs Interactomes” (Advanced Science, 2024).
“Also recorded” adds a separate entry of the source.

Assay: Amino acid labeling preference of photo‐arginine
Details: six amino acids tested (Figure S1)

Q: For photo‐arginine, which “amino acid labeling preference” value is on record?
A: The value was “preferred to label Asp (negative charge) and Lys; also recorded: also preferred to label Trp and Tyr; also recorded: Ile and Gln exhibited relatively lower labeling efficiency”.
